Literature values, collected in patent US5322698A, “Process for the preparation of a tablet or dragee composition containing a heat-, light- and moisture-sensitive active ingredient having monoclinic crystal structure” (priority 1990, dated 1994).

Conditions: antiarrhythmic reference drugs; Welling et al. 1985; cited from earlier work

CCCCc1oc2ccccc2c1C(=O)c1cc(I)c(OCCN(CC)CC)c(I)c1 [aminodarone]
absorption: not absorbed
